# Reference: PubChem BioAssay AID2685 (National Center for Advancing Translational Sciences (NCATS), 2010)
# This is one part of the list. These are further read-outs of the screen, such as a control signal, another cell line or another target. No call is given for them. The list favours compounds with an active or inconclusive main result. Potencies come from curve fits of mixed quality, noted in brackets.
# Assay: qHTS Assay for Lipid Storage Modulators in Drosophila S3 Cells;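 as to cell number change: cells counted by Cell Tracker Red CMTPX staining in the red channel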
# Details: BODIPY lipid droplet fluorescence, 18-24 h; for cell number change: measured here: cell count max response, cells fed with added oleic acid
# Outline: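 Drosophila S3 cells got compounds at several concentrations plus oleic acid (400 uM solution). Laser-scanning cytometry with 488 nm excitation read lipid droplets at 500-530 nm and cells at 575-640 nm. Percent activity was relative to 20 uM Triacsin C.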
# [1] = measured here: lipid fluorescence (Fed channel) AC50, cells fed with added oleic acid
# [2] = measured here: cell number channel AC50, cells fed with added oleic acid
SMILES,cell number change [%],AC50 [1],AC50 [2]
CCCCN(Cc1ccccc1)S(=O)(=O)c1cc(Br)cc2c1N(C(C)=O)C(C)C2 (configuration not stated),-6.51,"1.3 µM [rising, full curve]",–
COc1ccccc1-c1ccc(=O)n(CC(=O)NCc2ccco2)n1,-27.6,"29.1 µM [falling, single point]","2.91 µM [falling, full curve, poor fit]"
Cc1cccc(Cn2cccc2/C=C2/C(=N)N3C=CSC3=NC2=O)c1,-1.81,"0.461 µM [rising, full curve, poor fit]",–
C=CCN1C(=O)C2(OCCCO2)c2cccc(C)c21,-8.4,"23.1 µM [rising, single point]",–
CCC1(c2ccccc2)NC(=O)N(CC(=O)Nc2ccccc2C(=O)N2CCCCC2)C1=O (configuration not stated),7.41,"18.4 µM [rising, partial curve, poor fit]","0.651 µM [falling, single point]"
Cn1c(Oc2ccc3c(c2)OCO3)nc2c1c(=O)n(Cc1ccccc1)c(=O)n2C,-0.414,"29.1 µM [rising, single point]",–
CCc1ccc(N(C(=O)c2csnn2)C(C(=O)NC2CCCCC2)c2ccncc2)cc1 (configuration not stated),-3.85,"0.116 µM [rising, single point]",–
CC1=Nc2ccccc2N=C(NC(=O)CSc2nnnn2-c2ccccc2)C1c1ccccc1 (configuration not stated),15.5,"0.326 µM [rising, partial curve, poor fit]","0.103 µM [rising, full curve, poor fit]"
O=C(CN1C(=O)COc2ccc(S(=O)(=O)N3CCCCC3)cc21)NCc1ccc(F)cc1,14.2,–,"0.0103 µM [rising, full curve, poor fit]"
CC(C)(C)C1CCC(=NNC(=S)NCc2ccccc2)CC1 (configuration not stated),-19.4,"6.51 µM [falling, single point]",–
COc1cc2c(cc1OC)-c1cc(NCc3ccccn3)nc(=O)n1CC2,42.4,"20.6 µM [rising, partial curve]","11.6 µM [rising, partial curve, poor fit]"
COc1cc(C(=O)NCc2nnc(SCC(=O)N3CCC(C)CC3)o2)cc(OC)c1OC,5.65,"0.058 µM [falling, full curve, poor fit]",–
COc1cc(/C=C2/SC(=S)N(CC(=O)O)C2=O)ccc1OC(=O)c1cccs1,-5.51,–,–
Cc1ccc(N2C(S)=C(C#N)C(=O)NC2c2cccs2)cc1 (configuration not stated),-16.7,"0.103 µM [falling, full curve, poor fit]","0.651 µM [rising, partial curve, poor fit]"
CN1CCN(C2CC(=O)N(c3ccc4c(c3)OCCO4)C2=O)CC1 (configuration not stated),43.2,"3.66 µM [falling, full curve]","13 µM [rising, partial curve]"
COc1ccccc1-n1c(=S)[nH]c2c(sc(=S)n2-c2ccccc2)c1=O,-79.4,–,–
O=C(Nc1ccccc1)c1cc(S(=O)(=O)N2CCSCC2)ccc1Cl,3.97,"0.0146 µM [rising, full curve, poor fit]",–
CC(NC(=O)C1CCN(C(=O)Nc2ccccc2)CC1)c1ccccc1Cl (configuration not stated),-5.01,"0.651 µM [falling, single point]",–
CNc1c([N+](=O)[O-])cnn1-c1ccccc1Cl,-23.1,"29.1 µM [falling, single point]",–

# Looked up by structure from the list above, 2 records:
SMILES,cell number change [%],AC50 [1],AC50 [2]
COc1cc(/C=C2/SC(=S)N(CC(=O)O)C2=O)ccc1OC(=O)c1cccs1,-5.51,–,–
CC1=Nc2ccccc2N=C(NC(=O)CSc2nnnn2-c2ccccc2)C1c1ccccc1 (configuration not stated),15.5,"0.326 µM [rising, partial curve, poor fit]","0.103 µM [rising, full curve, poor fit]"

# Remaining list, next part:

SMILES,cell number change [%],AC50 [1],AC50 [2]
CN(C)c1nc(Oc2ccc(=O)[nH]n2)nc(N2CCCCC2)n1,0.638,"20.6 µM [rising, single point]",–
CC(C)c1ccc(CN2CCN(C(=O)CSc3nnnn3C3CC3)CC2)cc1,-17.1,"20.6 µM [falling, partial curve, poor fit]",–
Cc1nn(-c2ccccc2)cc1C(c1c(N)[nH]c(=S)[nH]c1=O)c1c(N)[nH]c(=S)[nH]c1=O,-1.82,"3.26 µM [rising, partial curve]",–
COc1ccccc1N1CCN(C(=O)c2c(-c3ccccc3)noc2C)CC1,-26,–,–
Cn1nnnc1SCC(=O)NC1CCCc2ccccc21 (configuration not stated),-16.6,"29.1 µM [falling, single point]",–
COc1ccc(CNC(=O)C2CC(C)=CCC2C(=O)O)cc1 (configuration not stated),30.7,–,"0.00461 µM [rising, full curve, poor fit]"
O=S(=O)(/C=C/c1ccccc1)N1CCN(c2nc(-c3cccnc3)nc3ccccc23)CC1,19.5,"0.164 µM [rising, full curve, poor fit]",–
Cc1cc(C)n(CC(=O)NNC(=O)CCCOc2ccc(Cl)c(C)c2)n1,10.3,–,–
O=C(N1CCN(c2ccccc2)CC1)C1(c2cccs2)CCOCC1,14.4,"0.092 µM [rising, full curve]",–
CCOC(=O)CC(NC(=O)c1cccs1)c1ccc(C)cc1 (configuration not stated),7.21,–,–
O=S(=O)(Nc1cccnc1Cl)c1ccc(F)cc1,-16.2,–,–
CCOc1ccc(S(=O)(=O)N2CCCC(C(=O)N3CCOCC3)C2)cc1C (configuration not stated),–,"5.8 µM [falling, single point]",–
COc1cccc(CNC(=O)c2ccccc2-c2ccccc2)c1,-9.73,–,–
COc1cc(/C=N/NC(=O)c2cccc3ccccc23)cc(OC)c1O,-10.4,"29.1 µM [rising, single point]","0.461 µM [rising, single point]"
COc1ccc(O)c(C(=O)c2cnn(-c3ccc(Cl)cc3)c2)c1,162,–,"4.61 µM [rising, full curve]"
Fc1ccc(-c2cc3nc(-c4ccccc4)cc(N4CCOCC4)n3n2)cc1,-5.79,"1.03 µM [rising, full curve]","0.651 µM [rising, full curve]"
CCc1ccc(NC(=O)c2cc(S(=O)(=O)N3CCc4ccccc43)cn2C)cc1,58.2,–,"25.9 µM [rising, single point]"
Cc1cc(C)cc(NC(=O)Cn2nnc3ccccc3c2=O)c1,23.3,"18.4 µM [rising, single point]",–
Cc1ccccc1OCC(=O)NCC(=O)N/N=C/c1cccc([N+](=O)[O-])c1,50.9,"0.291 µM [rising, full curve]","29.1 µM [rising, single point]"
